Data reported in publication PMC7819943, “Rice protein-binding microarrays: a tool to detect cis-acting elements near promoter regions in rice”.
The list shows a part of the results.

Protein sequences, listed by entry. Tags and fused reporters are not part of them.
UniProt Q0JBA9, entry or part of it: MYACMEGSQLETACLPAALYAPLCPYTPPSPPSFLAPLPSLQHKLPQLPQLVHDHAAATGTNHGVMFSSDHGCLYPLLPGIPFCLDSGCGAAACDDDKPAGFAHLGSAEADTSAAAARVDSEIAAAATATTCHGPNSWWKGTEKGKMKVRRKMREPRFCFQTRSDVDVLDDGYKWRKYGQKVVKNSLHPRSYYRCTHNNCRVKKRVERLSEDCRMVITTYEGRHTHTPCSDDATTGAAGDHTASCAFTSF

Molecular target: OsWRKY34 (Oryza sativa, UniProt Q0JBA9 1-250)
Assay: protein-binding microarray (RPBM); PBS, 2% BSA, 51.3 ng/ul salmon testes DNA, 50 uM zinc acetate, 200 nM TF, 25 C, 1 h; high values mean tight binding
Settings: protein: recombinant; tags: N-terminal polyhistidine and DsRed monomer fusion (pET32a); label: CyDye5-dUTP incorporated in the synthesized complementary strand; 3' TTTTT single-stranded linker to array surface; dsDNA, one strand shown
How it was run: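 Using Ni–NTA, transcription factors fused N-terminally to polyhistidine and DsRed were purified after expression in E. coli BL21-CodonPlus. These were incubated at 200 nM with a blocked, double-stranded custom Agilent array for 1 h at 25 °C in a buffer containing 50 µM zinc acetate, and the array was washed. The binding signal is per-feature fluorescence intensity (arbitrary units) on an Axon 4000B scanner.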

Sequence	binding signal
CATGGGCTTTCTTTGTCCTGCATGCCTCCATGCCGATATCCGGAGTCACCTAGTGCAG	11200 fluorescence intensity (a.u.)
GGGAGGTGGATAAGTGGTGGAGAGAGATGTGAAAGAAAGACGGAGTCACCTAGTGCAG	8970 fluorescence intensity (a.u.)
GCCAATATGCTCGCCGCCGCCGCCTCCGTCAAGCTCTCCACGGAGTCACCTAGTGCAG	9410 fluorescence intensity (a.u.)
CTCGATCCCTTCGAACACCCTTGCGTTTCGCTCTTTCCAACGGAGTCACCTAGTGCAG	9400 fluorescence intensity (a.u.)
TAAGAAATTTTGACTTTAGTCAAAGTCAAACTGCTTTAAACGGAGTCACCTAGTGCAG	11200 fluorescence intensity (a.u.)
CCATTCCGCCCACTAGCTTTCTCTCTCTATTTTCTTTTTCCGGAGTCACCTAGTGCAG	16800 fluorescence intensity (a.u.)
TTATCTTGCTGATGGCATATATCCTTCTTGGGCCACATTTCGGAGTCACCTAGTGCAG	8240 fluorescence intensity (a.u.)
ACATCGCCTGGGCCATCCAGAAGCTCTCCGGCTTCTGCATCGGAGTCACCTAGTGCAG	8120 fluorescence intensity (a.u.)
CACTACTTCTACTACTCGCCGCCACCCAAACCCAAAGCAGCGGAGTCACCTAGTGCAG	8370 fluorescence intensity (a.u.)
CTTCTTGCGTTCACTGTTGTTTACCTGTTATTTTTAATCTCGGAGTCACCTAGTGCAG	9160 fluorescence intensity (a.u.)
CCGCTCCGCATCCGCATCCGTACATTATTTGCATCTGCTCCGGAGTCACCTAGTGCAG	9550 fluorescence intensity (a.u.)
ATAGCATTAGCTGCTTGGTTTGACCATTGGTCATGGGGTTCGGAGTCACCTAGTGCAG	12300 fluorescence intensity (a.u.)
ATTAACGTTTCACCCGCGCGCGCCCACCTGCCGCTGCAATCGGAGTCACCTAGTGCAG	8650 fluorescence intensity (a.u.)
AATATAGTCTATTCAATTTCAGCTATAAGTTTTCTGTTTTCGGAGTCACCTAGTGCAG	9550 fluorescence intensity (a.u.)
CCTATGCCTGAGCCGTACTTGTGCCGTTGTGCGGTTAATCCGGAGTCACCTAGTGCAG	10200 fluorescence intensity (a.u.)
TATAAATGAGATAGCCCACATAGCAGCGCTGCCGTTTCTCCGGAGTCACCTAGTGCAG	8800 fluorescence intensity (a.u.)
ACCGACTGACTCATAATCTCTTCTCCTTGCTCTCTAGTTTCGGAGTCACCTAGTGCAG	8790 fluorescence intensity (a.u.)
GACCACCAAGAGAAAGACCGGAGTCACCAGCACTGACCACCGGAGTCACCTAGTGCAG	8450 fluorescence intensity (a.u.)
TGTGTGGTAGTTCGGGGTGGACCTACTTCTAATTATTGGGCGGAGTCACCTAGTGCAG	14100 fluorescence intensity (a.u.)
TGAGATGATGTGTGTTGTTCATTGTGCTTGTGTTGGAGATCGGAGTCACCTAGTGCAG	8830 fluorescence intensity (a.u.)
ACTACAGCTAAAGCACGCTGCTTTTCTTTTTTTTTCATTACGGAGTCACCTAGTGCAG	9940 fluorescence intensity (a.u.)
ACTTTATGCGTGACTTGTCTTTTTAATTTTTTTCATATTCCGGAGTCACCTAGTGCAG	12200 fluorescence intensity (a.u.)
AGTGCGCGTGGGTGGGTGTGCGTGTTGTAGCTCTTTCATGCGGAGTCACCTAGTGCAG	11200 fluorescence intensity (a.u.)
TACAACCAAGTCTGACAAACACTACTGCTATGGCTTCTTTCGGAGTCACCTAGTGCAG	9190 fluorescence intensity (a.u.)
CTCTAGCTCTACGTGAACACCTTGGCCGTCATCAAATCCGCGGAGTCACCTAGTGCAG	9800 fluorescence intensity (a.u.)
TTTTCGATTCTCTCCACTCCTGTGTTCACCATCGTCCTTACGGAGTCACCTAGTGCAG	11600 fluorescence intensity (a.u.)
CTCTCCACCTCGCGAGATCTAATCCCAATTCCCAACCTCACGGAGTCACCTAGTGCAG	9400 fluorescence intensity (a.u.)

Sequence	binding signal
CCTCTCCTTTCCATTGTTGCTCCGCTCGGATTCCGCTCTTCGGAGTCACCTAGTGCAG	9200 fluorescence intensity (a.u.)
GCCAGTTAGCCTAATTCTGCCTATAAATACACGGGCAAATCGGAGTCACCTAGTGCAG	8130 fluorescence intensity (a.u.)
ATCTTACTGTCTTTCCTTATCTTCTTGGTTGCTGTATCAGCGGAGTCACCTAGTGCAG	9600 fluorescence intensity (a.u.)
CCTCCCTTTCTCATAGTTCCAGTGTTATTTTTATTCTCTCCGGAGTCACCTAGTGCAG	8260 fluorescence intensity (a.u.)
CCAACTTTTTCATCACATTATTCCAATTTCAACCAAACCTCGGAGTCACCTAGTGCAG	9010 fluorescence intensity (a.u.)
ATCATTGGTAGCCGCATTTGTTGTTCTTTCGTTCATCATGCGGAGTCACCTAGTGCAG	12200 fluorescence intensity (a.u.)
ACTACGTATATTTTTATGTACTTCAATTCTCTACTATTATCGGAGTCACCTAGTGCAG	8330 fluorescence intensity (a.u.)
GATCGTTTAGTTCTGTCCTTTTTTGTTGGTTTCTTGGGGACGGAGTCACCTAGTGCAG	10700 fluorescence intensity (a.u.)
TACTACTAGTTTTCTTTCTTGGCCATCATCATTTGTTCCTCGGAGTCACCTAGTGCAG	9860 fluorescence intensity (a.u.)
GGATGACAACGCACACACTGTTAGGCCTCCTTTGGAACACCGGAGTCACCTAGTGCAG	8050 fluorescence intensity (a.u.)
TTTCGGCCGTGGCTCGTCTTCTGCGCGCCGGTGTTGATCTCGGAGTCACCTAGTGCAG	8290 fluorescence intensity (a.u.)
GCTTCTTCATCGATCGCCATCGTCTTCTCCAGTCCTCATGCGGAGTCACCTAGTGCAG	12600 fluorescence intensity (a.u.)
AAGTTGGACTTTCTTTTCTTTCTTTATTTACCTTTTTTTGCGGAGTCACCTAGTGCAG	8700 fluorescence intensity (a.u.)
TTTTTTCAACATGAGTCCCACGATTCGATTTAACACTACACGGAGTCACCTAGTGCAG	8070 fluorescence intensity (a.u.)
CCCTTCTCTCTCTCTCTCTCTCTCTCTCTCTCTCTCTCTCCGGAGTCACCTAGTGCAG	11500 fluorescence intensity (a.u.)
ACAAGTCAACACCACCATGCAATCTCCATGCTAGCCAAAACGGAGTCACCTAGTGCAG	9440 fluorescence intensity (a.u.)
TGTTCGTCGGTGACTTGTTCGTACGGTTATGTGTGTCTGTCGGAGTCACCTAGTGCAG	13000 fluorescence intensity (a.u.)
ACTACTCTACGTCATCGTCAAAATGTGTATAAACACAATCCGGAGTCACCTAGTGCAG	9110 fluorescence intensity (a.u.)
TTTCTCTTCAAGCTCACTTTTCTTGTGATGTGTTCACATTCGGAGTCACCTAGTGCAG	8210 fluorescence intensity (a.u.)
TGTTTTATGTGTTTTTTCTATTTCTTAAATTTTTTTTCATCGGAGTCACCTAGTGCAG	12700 fluorescence intensity (a.u.)
TACATGTTTGACTTTGACTTGGTTTTTGGATATTTCATTTCGGAGTCACCTAGTGCAG	9170 fluorescence intensity (a.u.)
AACGTTAAGCACGGAAACCAGGGTTTGTCTTTTTTCCTTTCGGAGTCACCTAGTGCAG	8480 fluorescence intensity (a.u.)
CATTCATTTCATCACCAGTTTTCCCTGGACCAAAAATCCACGGAGTCACCTAGTGCAG	8710 fluorescence intensity (a.u.)
GTCTCAATGTCTCACCATTTGGCAACTGTTGTTTTGATCGCGGAGTCACCTAGTGCAG	10400 fluorescence intensity (a.u.)
TGGCACTCAAGATGGGGCGATTTTCTGGTTTTCTTCATTCCGGAGTCACCTAGTGCAG	9130 fluorescence intensity (a.u.)
GCATCGCTCGGCCAGAGATTCTCCTACAGTCGTACTGCCTCGGAGTCACCTAGTGCAG	8450 fluorescence intensity (a.u.)
TGCTACCACCTGCTGCCTGCATTTAATCACCGACCTTACACGGAGTCACCTAGTGCAG	9750 fluorescence intensity (a.u.)

Quoted at random: three entries already listed.
Sequence	binding signal
TATAAATGAGATAGCCCACATAGCAGCGCTGCCGTTTCTCCGGAGTCACCTAGTGCAG	8800 fluorescence intensity (a.u.)
CCCTTCTCTCTCTCTCTCTCTCTCTCTCTCTCTCTCTCTCCGGAGTCACCTAGTGCAG	11500 fluorescence intensity (a.u.)
CCTCCCTTTCTCATAGTTCCAGTGTTATTTTTATTCTCTCCGGAGTCACCTAGTGCAG	8260 fluorescence intensity (a.u.)
